According to article PMC5893762:
No constants are given. Whether binding was seen depends on the method and setting. Binding seen in cells or lysates may run through a third protein. Tags and fused reporters may be left off the sequences shown.

Biological target: HA-MGA_0676^ΔSNC (Mycoplasma gallisepticum (strain BJ44T))
Assay: co-IP; HEK293T cells co-transfected with HA and Myc plasmids, 24 h; non-denaturing lysate; IP with anti-HA antibody and protein A/G agarose; blot with anti-HA or anti-Myc

B1: Myc-NAE (NEDD8-activating enzyme E1 regulatory subunit, expressed in HEK293T cells) (protein, UniProt Q5ZIE6 1-535)
chain: MAQPGRASLKEQRYDRQLRLWGDHGQEALESAHVCVINATATGTEILKNLVLPGIGSFTIVDGNRVSGEDVGNNFFLQKSHIGQSRAQSATELLQELNNDVSGNFVEESPETLLDNDPSFFNRFNLVVATQLSESTVLRLAELLWNSNIPLLICRTYGLVGYMRIIIKEHPVVESHPDNALEDLRLDKQFPELTEHIQSYDLDHMDKKDHSHTPWIVIVAKYLTKWFNEKSDQLPKSYKEKEAFRQLIRQGILKNENGTPEDEENFEEAIKNVNTALNTTKIPRCIEEIFNDDCCVNLTEQSPSFWILVRAVKEFVANEGQGCLPVRGTIPDMIADSSKFIKLQNVYREKAKRDIAAVGNHAAKLLQSLGKAPESISERELKLLCSNSAFLRVVRCRSLSEEYGLNTFNKDEIISNMDNPDSEVVLYLMLRAVDRFYKQHGRYPGVYNYQVEDDIGKLKSCLTSFLQEHGLSVLVKDDYVHEFCRYGAAEPHAIAAFMGGAAAQEIIKVITGQFVIFNNTYIYSGMSQTSATFQL
  binding: no binding
